# In all, about 53,000 sequences went through this assay and about 3,700 (7%) were called active.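 The calls were made as follows: active = gene knockdowns whose robust z-score for IL-1 alpha signal is at least 2 or at most -2, so actives lie on both sides; inactive = the rest.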 The list shows a part of the results.
# Assay: Components of the Cytosolic LPS Sensing Pathway: Gene Identification via Genome-wide siRNA Screen;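 also: robust z of the log signal after scaling to non-targeting control siRNA wells of the plate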
# Settings: RAW264.7 macrophages, IL-1a HTRF, actives lie on both sides, screened at 100 nM (by protocol), cells primed 5 h with Pam3CSK4 first
# Outline: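 Supernatant IL-1a by HTRF from RAW264.7 cells primed with Pam3CSK4 (5 hours) and transfected with LipidA (24 hour) after 48h siRNA knockdown at 100 nM; cell viability checked with CellTiter-Glo.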
row,Sequence,z-score
1,CGUACUUUAGGCAACCUAATT against Tmtc4,inactive: 0.366
2,GGAAUGUCAGUCAACACCGTT against Tfap2b,inactive: 0.521
3,CCUGUGGUGUUAAUAAGAUTT against Simc1,inactive: 0.445
4,GGUCCUCAAGCUCAUGGAUTT against Rogdi,inactive: 0.327
5,GAAUUGGACAACUUUCUCCTT against Olfr8,inactive: -1.3
6,GUUGUAAUUGGUUAUGUGCTT against Pigp,inactive: 0.472
7,GGGUCAUGUUAACUCUAAATT against Nobox,inactive: -0.285
8,GGGCUUUUGUUUUGAAACATT against Smc1b,inactive: -1.42
9,CGGCGUGCACUCUGGAUAATT against C2cd5,inactive: -1.63
10,GGCCAAAACCACAAAGAAGTT against Rpl36al,inactive: -1.07
11,GCAGGAACCAUACUCUACATT against Adap1,inactive: 0.0843
12,GCGUAUGACAUAAAGAUAGTT against Ctbs,inactive: -0.315
13,GAUACUCUUUGGGCCAUUGTT against Vmn2r42,inactive: -0.444
14,GCACUAAAGAAGUUACUGCTT against Olfr126,inactive: 0.377
15,GGUUUGGUACAUUUGCAUCTT against Olfr616,inactive: -0.661
16,GCUGAAUGAUAUGGAACCUTT against Vapa,inactive: -1.76
17,GCCAGAUUGUGGUCAUGACTT against Olfr365,inactive: 0.5
18,GGAUUAACUCUUGAAAGUUTT against Cd4,inactive: 0.59
19,GCCAUUACAAGUGAUAUAATT against Ufl1,inactive: 0.268
20,GCCGCCAAGUUUCGAUUCGTT against Htr5b,inactive: 1.46
21,GCUCCAUUUGAGGAACAAGTT against Zfp277,inactive: -1.08
22,CCCUGAGAUAGGCAAUGUGTT against Tceanc2,inactive: -1.57

row,Sequence,z-score
1,CCUUCAGGGUGCUUCUCUATT against Mrgpra6,inactive: -0.644
2,CGUACAGUGAUGAUUUUGATT against Cep162,inactive: 0.218
3,GGUAGACAGAGAAGAUAAATT against Slc35f5,active: -2.01
4,GGAUCUGGCAUUCAGAUAATT against Azin1,inactive: 0.414
5,GGAGUUUGGAACUUCCAACTT against Tcf21,active: 2.79
6,CCCUUCAGCACGAUGAAAATT against Wdr95,inactive: -0.19
7,GCUUGAUUUUGAAUAACACTT against Tas2r116,inactive: -0.316
8,CCGUUUCAGAUUCCUAUCATT against 4930524B15Rik,inactive: -0.435
9,GGGAAAACCUCUUCUGUGUTT against Olfr904,inactive: 0.0564
10,GGAAGAUUCCGACUUUAUUTT against Irs4,inactive: 0.69
11,GCUUAUUUAAUGCAUCAGGTT against Avil,inactive: 0.968
12,GGUGAUUUAUUCAGUUCAATT against Lmbrd2,inactive: -1.13
13,GGGAAGAGCUAGCACUGAATT against Phox2b,inactive: -1.86
14,CCUCACCUUAAGUGUGUCATT against Sdhaf4,inactive: -0.277
15,GGUGACAGAUUCUUUGAGGTT against Tti2,inactive: 0.704
16,GUACAUGUCGAUGGCAGUCTT against Fthl17e,inactive: 0.648
17,GGCUAAAGAGUCCUCGGUGTT against Serpina5,inactive: 0.594
18,AACAGAUCUUCUCUGGUCCTT against Klra15,active: -2.47
19,CCAGUGACACCUUAAAACCTT against Setbp1,inactive: -0.585
20,GGGAGAUUUUAGGUUUGGATT against Bhlha9,inactive: 0.217
21,CCUGGGAGCCUAUUAUUCUTT against Ndufb10,inactive: -0.032
22,GAGGACAUGGCCAGAUACUTT against Npy,inactive: -0.502

# Quoted at random: 4 entries already listed
row,Sequence,z-score
7,GGGUCAUGUUAACUCUAAATT against Nobox,inactive: -0.285
1,CCUUCAGGGUGCUUCUCUATT against Mrgpra6,inactive: -0.644
21,GCUCCAUUUGAGGAACAAGTT against Zfp277,inactive: -1.08
1,CGUACUUUAGGCAACCUAATT against Tmtc4,inactive: 0.366

# Following part

row,Sequence,z-score
1,GGACAACGGAUUUUAGGAGTT against Barhl2,inactive: 0.44
2,CCUCUCUAUCUCUGACAUGTT against Olfr960,inactive: 0.476
3,GCCCAUCACUUAUAGUGGGTT against Usf2,inactive: -0.799
4,GGAGCACUGUCCUUAAACATT against Cxcl16,inactive: 0.189
5,CCAGAUUAGGCUAAUAGAATT against Lrsam1,inactive: 0.555
6,CCCAUGUGCGAUGAAACUUTT against Nudt3,inactive: 0.716
7,CGGAGAGGAUUUCAUCGAATT against Azgp1,inactive: 0.0877
8,GGAAAUCAAAGAGAAAGUUTT against Rassf3,inactive: -0.748
9,GUGUAAAAGUGCAAAGAGATT against Klra7,inactive: -0.536
10,GGAACUUUUUCAGAUGCAGTT against Ndnf,inactive: 0.108
11,CCUGAAAGAACGGGAGUAGTT against Mab21l2,inactive: -0.415
12,GUGACAAAAACAUCCAAGCTT against Olfr456,inactive: -1.23
13,GGAGCAGUAUGAAAGGGAUTT against Trap1a,inactive: -1.35
14,GGUCUGUAAGCUACCUAAUTT against Mageb18,inactive: 1.28
15,CGUAGAGAUCAGUUCAAUGTT against Clock,inactive: -1.36
16,GGACUCAAGGACAAACAGUTT against Heg1,inactive: -1.38
17,GGAGAUCUAUUACCACGGATT against Arrb1,inactive: 0.484
18,GGAUAGGGCAUGGAAAUCCTT against Scnn1g,inactive: -0.589
19,GGACAUCGAGCUUCAGAUCTT against Dnm1l,active: 2.68
20,CGUACUCUUGGAGAGGAUUTT against Sva,inactive: -0.89
21,GGAGACUGAAGUCCAUCAATT against Atp5c1,inactive: 0.685
22,GCUGGACACGGAAGGUAUATT against Igsf8,inactive: -0.595

row,Sequence,z-score
1,CGACUCCGGCAUCUAUGAUTT against Cmklr1,inactive: -0.409
2,GGGCUGGGAGACAAAGAAATT against A130050O07Rik,inactive: 0.523
3,GCCCAUGGACACAUCCAGUTT against Slc8b1,inactive: -0.512
4,GCAAAGAUUGUUUUUGCUGTT against Oat,inactive: 0.3
5,CGAGGAGAUCAGCUACUUUTT against Lin7c,inactive: 0.866
6,CCUGCUGAAAUAUCAUAAATT against Zfp607b,inactive: 0.262
7,GGCAUAUCAACUGUCGUUCTT against Cyp2r1,inactive: -1.23
8,GGUACUUUCGGACUCAGUUTT against Ipp,inactive: -0.0605
9,GGGUUUCUCCAGUAUGCAUTT against Mr1,inactive: -0.335
10,GCUUGCAUAAAUUGCUAAATT against Xrcc4,inactive: 1.94
11,GCCUCUUUGAUAGCAAAAGTT against Cct6a,inactive: -0.663
12,GGAUAAACUUAAACAACUCTT against Tnpo2,inactive: -1.25
13,GGAAAAGCUGAAGGAAAAUTT against Mcmbp,inactive: 1.25
14,CCCUAAAAACACCUGAGAGTT against Vsig4,inactive: 0.961
15,GGAACAUUGGUGUUACAGCTT against Atp5j,active: 2.29
16,GGACCGGUGUCUAAUCAGCTT against Capn10,inactive: 1.75
17,GGACGAAUGCUCAGGAGGUTT against Hmcn2,inactive: 1.1
18,GGAACUAGGACUAAACAACTT against Lrrn2,inactive: 1.32
19,GGAAGUGGACGUGAAACCCTT against Btg3,inactive: 0.15
20,GGUGCAGACCAACAAGACATT against Gm9946,inactive: -0.445
21,GCAAGUUAAGGAUAUCAUGTT against Katna1,inactive: 1.2
22,GCUUGUUCGGGAAUCUUAUTT against Olfr292,inactive: 0.116

# Single values from the results shown.
# Entry for GGGUUUCUCCAGUAUGCAUTT against Mr1 under z-score: inactive: -0.335
# Entry for GGAUAGGGCAUGGAAAUCCTT against Scnn1g under z-score: inactive: -0.589

# Next part:

row,Sequence,z-score
1,GGUGAGACAAAGGAACAAGTT against Tmem100,inactive: -1.23
2,CCUAAUCAGCAAACCAGGUTT against Magee2,inactive: -1.63
3,GGUGUUUGGGCGGUUUGAATT against Snx15,active: -2.25
4,GGAUUAGAAUGUCAUGUCUTT against Ddx20,inactive: -1.28
5,CGACGAACGGGUAAAAGGUTT against Pcdha4,inactive: -0.207
6,GGGCGAUGAAGAAGAGAAATT against Smad1,inactive: -0.443
7,GCAUUCAAUGUUCUUAAGCTT against Tmc3,inactive: 0.845
8,GGCGACAGGUCCUGUAAUGTT against Ddx56,inactive: 0.891
9,GCGGAAUUUGGUUUCUAUUTT against Etv2,inactive: -0.432
10,GGACAUGAAAGAAACGGUGTT against Bbc3,inactive: -0.282
11,GUGCCUCUCAUCACUAUCUTT against Olfr571,inactive: 0.501
12,GGUUUGUAGACGACAAUCUTT against Insig1,inactive: -0.128
13,GGCCGAGUCAAGAAUCUUUTT against Tvp23b,inactive: 0.696
14,CAGCAUCAAGCAGAAAAGATT against Gm5458,inactive: -1.4
15,GCGACUGAACAUCAACGCATT against Ada,inactive: -0.862
16,GGACGACAUGAUUUUCGAGTT against Atp1b1,inactive: -0.399
17,UGCUUUGCAUCUGGCUGUATT against Hs3st3b1,inactive: -1.46
18,CGUCAUAAAGAAUAGUUCCTT against Ncoa4,inactive: 0.965
19,GGAAUCGUCUGAGAAAUUCTT against Lgmn,inactive: 1.44

# From PubChem BioAssay AID1508600 (Functional Genomics Laboratory (NCATS/FGL), 2020)
